Experimental data as given in paper PMC10176748.

The chains behind the UniProt entries cited, without tags or fusion partners. Where a name states a change or a piece, a line headed by the entry shows the natural chain unless it says otherwise. Residues count along the entry.
UniProt P97857: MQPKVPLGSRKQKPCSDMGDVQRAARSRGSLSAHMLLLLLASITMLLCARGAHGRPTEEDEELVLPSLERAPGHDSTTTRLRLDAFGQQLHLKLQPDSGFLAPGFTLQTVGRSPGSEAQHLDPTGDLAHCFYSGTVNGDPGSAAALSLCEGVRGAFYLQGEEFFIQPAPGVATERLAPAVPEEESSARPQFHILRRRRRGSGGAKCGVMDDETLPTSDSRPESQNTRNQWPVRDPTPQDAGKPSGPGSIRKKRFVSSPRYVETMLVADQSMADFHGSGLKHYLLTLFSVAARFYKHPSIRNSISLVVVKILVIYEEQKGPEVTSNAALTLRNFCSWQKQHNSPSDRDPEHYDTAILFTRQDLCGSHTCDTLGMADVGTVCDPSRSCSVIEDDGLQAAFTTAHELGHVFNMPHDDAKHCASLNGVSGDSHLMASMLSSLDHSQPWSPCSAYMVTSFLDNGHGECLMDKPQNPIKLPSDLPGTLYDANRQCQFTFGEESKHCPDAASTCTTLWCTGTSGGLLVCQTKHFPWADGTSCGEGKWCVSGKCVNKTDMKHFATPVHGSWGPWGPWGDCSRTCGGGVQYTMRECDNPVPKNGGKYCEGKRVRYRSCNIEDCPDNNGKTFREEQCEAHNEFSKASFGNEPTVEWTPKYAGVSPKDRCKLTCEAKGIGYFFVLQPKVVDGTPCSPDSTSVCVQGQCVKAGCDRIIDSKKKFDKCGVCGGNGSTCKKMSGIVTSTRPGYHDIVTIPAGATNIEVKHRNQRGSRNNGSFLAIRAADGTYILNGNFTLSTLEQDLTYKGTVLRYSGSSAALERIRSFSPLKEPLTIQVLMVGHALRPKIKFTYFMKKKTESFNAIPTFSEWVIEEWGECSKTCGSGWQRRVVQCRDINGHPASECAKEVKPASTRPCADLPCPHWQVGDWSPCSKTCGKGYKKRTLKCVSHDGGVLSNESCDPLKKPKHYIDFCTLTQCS
UniProt Q64339, residues 1-155: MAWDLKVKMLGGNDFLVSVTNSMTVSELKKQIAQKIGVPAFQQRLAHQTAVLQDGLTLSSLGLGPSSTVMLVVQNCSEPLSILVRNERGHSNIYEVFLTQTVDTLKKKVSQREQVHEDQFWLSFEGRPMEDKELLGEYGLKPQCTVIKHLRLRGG

Legend:
[1] = target: FLAG-ADAMTS1 (mouse) (UniProt P97857); experiment: co-IP; mGCs co-transfected with tagged ADAMTS1 and tagged ISG15 (or ISG15-AA); lysates immunoprecipitated with anti-HA or anti-FLAG beads overnight at 4 °C, PBST washes, immunoblot
[2] = target: HA-ADAMTS1 (mouse) (UniProt P97857); experiment: as above

binding [1]	binding [2]	Substance
binds		HA-ISG15 (from UniProt Q64339 1-155)
	binds	FLAG-ISG15 (interferon-stimulated gene 15) (from UniProt Q64339 1-155)

Results are given in words; binding and its absence hold for the method and conditions named. Binding seen in cells or lysates may run through a third protein. Binding can be weak; no strength is given.
